Source: patent US20050282818A1, “Ubiquitin ligase inhibitors” (Rigel Pharmaceuticals, Inc., priority 2004, published 2005)

Amino acid sequences for entries named in this document (tags omitted).
UniProt Q9Y4K3, whole entry: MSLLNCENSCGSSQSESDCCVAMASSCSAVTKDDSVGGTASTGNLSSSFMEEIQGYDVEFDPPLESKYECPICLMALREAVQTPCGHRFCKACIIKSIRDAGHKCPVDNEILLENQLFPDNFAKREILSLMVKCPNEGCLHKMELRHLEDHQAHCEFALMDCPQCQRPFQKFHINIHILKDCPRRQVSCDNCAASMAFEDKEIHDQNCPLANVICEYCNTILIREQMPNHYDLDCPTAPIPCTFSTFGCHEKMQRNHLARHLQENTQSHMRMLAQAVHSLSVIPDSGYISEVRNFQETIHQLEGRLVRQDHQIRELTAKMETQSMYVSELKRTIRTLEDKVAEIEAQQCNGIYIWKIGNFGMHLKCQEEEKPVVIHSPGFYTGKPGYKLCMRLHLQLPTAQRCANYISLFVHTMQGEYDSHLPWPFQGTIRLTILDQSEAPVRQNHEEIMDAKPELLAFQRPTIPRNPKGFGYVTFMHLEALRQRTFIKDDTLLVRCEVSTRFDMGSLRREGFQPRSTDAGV
UniProt P62877, whole entry: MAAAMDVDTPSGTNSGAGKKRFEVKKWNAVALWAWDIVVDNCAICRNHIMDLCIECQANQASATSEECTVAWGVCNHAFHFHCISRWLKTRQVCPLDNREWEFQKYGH
UniProt Q13616, whole entry: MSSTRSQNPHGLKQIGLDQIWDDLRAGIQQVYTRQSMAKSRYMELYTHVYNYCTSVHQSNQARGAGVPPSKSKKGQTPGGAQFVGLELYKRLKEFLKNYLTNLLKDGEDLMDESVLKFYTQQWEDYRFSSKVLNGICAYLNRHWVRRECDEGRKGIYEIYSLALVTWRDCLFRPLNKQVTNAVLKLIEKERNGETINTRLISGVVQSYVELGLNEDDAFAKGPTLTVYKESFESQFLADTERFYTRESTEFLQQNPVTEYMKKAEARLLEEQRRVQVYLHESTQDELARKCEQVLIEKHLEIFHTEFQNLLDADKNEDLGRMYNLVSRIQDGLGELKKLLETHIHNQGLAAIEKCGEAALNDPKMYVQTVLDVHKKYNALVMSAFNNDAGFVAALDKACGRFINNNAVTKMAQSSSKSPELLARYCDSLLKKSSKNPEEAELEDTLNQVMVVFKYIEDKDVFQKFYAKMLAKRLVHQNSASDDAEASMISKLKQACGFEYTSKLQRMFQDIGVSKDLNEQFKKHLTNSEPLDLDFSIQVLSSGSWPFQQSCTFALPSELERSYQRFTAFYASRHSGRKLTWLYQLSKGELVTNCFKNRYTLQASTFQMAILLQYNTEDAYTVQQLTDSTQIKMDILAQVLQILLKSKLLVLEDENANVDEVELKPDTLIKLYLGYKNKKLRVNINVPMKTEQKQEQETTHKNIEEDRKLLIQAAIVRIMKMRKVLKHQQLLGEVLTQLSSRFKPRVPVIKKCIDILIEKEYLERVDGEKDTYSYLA
UniProt Q9NYG5, whole entry: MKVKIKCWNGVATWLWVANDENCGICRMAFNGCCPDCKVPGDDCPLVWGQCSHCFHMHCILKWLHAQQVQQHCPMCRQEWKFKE
UniProt Q9UJX6, whole entry: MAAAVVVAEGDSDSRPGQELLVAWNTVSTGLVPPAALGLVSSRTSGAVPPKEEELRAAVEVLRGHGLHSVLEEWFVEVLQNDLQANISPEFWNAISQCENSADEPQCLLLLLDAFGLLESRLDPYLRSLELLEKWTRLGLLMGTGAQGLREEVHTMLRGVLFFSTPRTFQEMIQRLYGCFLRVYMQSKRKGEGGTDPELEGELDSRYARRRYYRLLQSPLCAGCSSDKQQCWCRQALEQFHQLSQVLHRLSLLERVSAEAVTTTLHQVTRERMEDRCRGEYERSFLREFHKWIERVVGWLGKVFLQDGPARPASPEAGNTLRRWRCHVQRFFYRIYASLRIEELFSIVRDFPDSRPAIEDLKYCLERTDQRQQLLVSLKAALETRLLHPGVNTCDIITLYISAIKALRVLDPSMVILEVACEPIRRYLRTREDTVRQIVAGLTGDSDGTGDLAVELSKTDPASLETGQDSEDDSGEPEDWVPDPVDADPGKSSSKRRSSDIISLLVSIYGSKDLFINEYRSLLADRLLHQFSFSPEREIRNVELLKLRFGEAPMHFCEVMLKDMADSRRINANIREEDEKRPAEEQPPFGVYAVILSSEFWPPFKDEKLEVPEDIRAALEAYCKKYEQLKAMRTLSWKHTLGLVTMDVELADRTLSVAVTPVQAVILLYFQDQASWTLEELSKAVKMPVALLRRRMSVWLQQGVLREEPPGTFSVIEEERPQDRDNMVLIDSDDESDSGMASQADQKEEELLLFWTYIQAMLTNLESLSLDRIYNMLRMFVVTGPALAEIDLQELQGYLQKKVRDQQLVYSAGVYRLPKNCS

Legend:
H1299 cells = test: Cell proliferation PAD assay, H1299; format: cell-based
OVCAR8 cells = test: Cell proliferation PAD assay, OVCAR8; format: cell-based; details: read-out: OVCAR8 6pt, 48 hours
TRAF6/Uev1A/Ubc13 = TRAF6/Uev1A/Ubc13 (Homo sapiens, UniProt Q9Y4K3); test: TRAF6/Uev1A/Ubc13 plate-based ubiquitin ligase assay; details: read-out: TRAF6/Ubc13 IC50
UACC-257 cells = test: Cell proliferation PAD assay, UACC-257; format: cell-based; details: read-out: UACC257 6pt, 48 hours
A549 cells = test: Cell proliferation PAD assay, A549; format: cell-based
ROC1/CUL1 = ROC1/CUL1 (Homo sapiens, UniProt P62877+Q13616); test: ROC1/CUL1 ubiquitin ligase assay (SCF assay); format: biochemical; details: read-out: SCF
Description: Inhibition of ubiquitin ligase activity of E1+E2+E3 was measured using the protocol as described in WO 01/75145 with E3 as the ROC1/CUL1, ROC1/CUL2, or ROC2/CUL5 complex.
The wells of nickel-substrate 96-well plates (Pierce Chemical) are blocked with 100 μl of 1 casein/phosphate buffered saline (PBS) for 1 hour at room temperature, then washed with 200 μl of PBST (0.1% Tween-20 in PBS) 3 times. To each well is added the following Flag-ubiquitin (see above) reaction solution: 62.5 mM Tris pH 7.5, 6.25 mm MgCl2, 0.75 mM DTT, 2.5 mM ATP, 2.5 mM NaF1, 2.5 nM Okadaic acid, 100 ng Flag-ubiquitin (made as described above).
The buffer solution is brought to a final volume of 80 μl with Milipore-filtered water, followed by the addition of 10 μl DMSO.
To the above solution is then added 10 μl of ubiquitination enzymes in 20 mM Tris buffer, pH 7.5, and 5% glycerol. E2-Ubch5c and E3-His ROC1/Cul1, ROC1/CUL2, and ROC2/CUL5 are made as described in WO 01/75145. E1 is obtained commercially (Affiniti Research Products, Exeter, U. K.). The following amounts of each enzyme are used for these assays: 5 ng/well of E1; […] E2; and 100 ng/well His-E3. Varying amounts of compounds according to the invention are added and the reaction allowed to proceed at room temperature for 1 hour.
Following the ubiquitination reaction, the wells are washed with 200 μl of PBST 3 times. For measurement of the enzyme-bound ubiquitin, 100 gel of Mouse anti-Flag (1:10,000) and anti-Mouse Ig-HRP (1:15, 000) in PBST are added to each well and allowed to incubate at room temperature for 1 hour. The wells are then washed with 200 μl of PBST 3 times, followed by the addition of 100 μl of luminol substrate (1/5 dilution). Luminescence for each well is then measured using a fluorimeter.
Table 2 below illustrates the inhibitory activity of the compounds of the invention determined by the TRAF6/Uev1A/Ubc13 assay as well as in the ICAM, APC and the ROC1/CUL1 Ubiquitin Ligase Assay (SCF Assay). The IC50 values were determined using a various concentrations of the compounds.

[1] = tested on: ICAM-1 expression in A549 cells; test: ICAM assay (IL-1 induced ICAM-1/CD54 expression in A549 cells); format: cell-based, human; details: read-out: ICAM
APC11/APC2 = APC11/APC2 (Homo sapiens, UniProt Q9NYG5+Q9UJX6); test: APC-11/APC-2 ligase assay (APC auto ubiquitination); details: read-out: APC IC50; APC assay
[2] = read-out: H1299 3pt, 3pt, 48 hours
[3] = read-out: H1299 6pt, 6pt, 48 hours
[4] = read-out: A549 3pt, 3pt, 48 hours
[5] = read-out: A549 6pt, 6pt, 48 hours

SMILES | IC50 (H1299 cells; [2]) | IC50 (H1299 cells; [3]) | IC50 (TRAF6/Uev1A/Ubc13) | IC50 (A549 cells; [4]) | IC50 (A549 cells; [5]) | IC50 (OVCAR8 cells) | IC50 (UACC-257 cells) | IC50 (ROC1/CUL1) | IC50 [1] | IC50 (APC11/APC2)
O=S(=O)(Nc1ccc(Oc2ccc(F)cc2)c(Br)c1)c1cccc2nonc12 | > 20 µM | > 20 µM | > 20 µM | > 20 µM | > 20 µM | > 20 µM | > 20 µM |  |  | 
O=S(=O)(c1ccc(F)c2nonc12)N1CCC2(CC1)OCc1ccccc12 | 1 to 20 µM |  | 1 to 20 µM | 1 to 20 µM |  |  |  | > 20 µM |  | 
O=S(=O)(c1c(Cl)ccc2nonc12)N1CCC2(CC1)OCc1ccccc12 | 1 to 20 µM |  | 1 to 20 µM | < 1 µM |  |  |  | > 20 µM | > 20 µM | 
O=S(=O)(Nc1ccc(F)cc1)c1ccc(N2CCOCC2)c2nonc12 |  |  | > 20 µM |  |  |  |  |  | > 20 µM | > 20 µM
O=S(=O)(Nc1cccc2nsnc12)c1ccc(Oc2ccccc2)cn1 | > 20 µM |  | > 20 µM | > 20 µM |  |  |  |  |  | 
O=[N+]([O-])c1ccc(Oc2ccc(S(=O)(=O)Nc3cccc4nsnc34)cc2Cl)c(C(F)(F)F)c1 | 1 to 20 µM |  | 1 to 20 µM | 1 to 20 µM |  | 1 to 20 µM | > 20 µM |  |  | 1 to 20 µM
O=S(=O)(c1ccc(Cl)c2nonc12)N1CCC2(CC1)OCc1ccccc12 | 1 to 20 µM |  | 1 to 20 µM | 1 to 20 µM |  |  |  | > 20 µM | > 20 µM | 

Now from value to molecule, other results behind:

IC50 (H1299 cells; [2]) | IC50 (H1299 cells; [3]) | IC50 (TRAF6/Uev1A/Ubc13) | IC50 (A549 cells; [4]) | IC50 (A549 cells; [5]) | SMILES | IC50 (OVCAR8 cells) | IC50 (UACC-257 cells) | IC50 (ROC1/CUL1) | IC50 [1] | IC50 (APC11/APC2)
< 1 µM | < 1 µM | > 20 µM | 1 to 20 µM | < 1 µM | CC(=O)C1(c2ccccc2)CCN(S(=O)(=O)c2ccc(Cl)c3nonc23)CC1 |  |  |  |  | 
1 to 20 µM |  | 1 to 20 µM | 1 to 20 µM |  | CN1CCN(S(=O)(=O)c2ccc(Sc3ccc4ccccc4c3)c3nonc23)CC1 |  |  | > 20 µM |  | 
1 to 20 µM |  | > 20 µM | 1 to 20 µM |  | O=S(=O)(c1c(Sc2cccc3cccnc23)ccc2nonc12)N1CCN(c2cnccn2)CC1 |  |  |  | > 20 µM | 
> 20 µM |  | 1 to 20 µM | 1 to 20 µM |  | Cc1cccc(N2CCN(S(=O)(=O)c3c(Sc4cccc5cccnc45)ccc4nonc34)CC2)n1 |  |  | > 20 µM |  | 
 |  | 1 to 20 µM |  |  | O=S(=O)(c1ccc(Oc2cccc3cccnc23)c2nonc12)N1CCN(c2ccccc2)CC1 |  |  | > 20 µM |  | 
> 20 µM | 1 to 20 µM | < 1 µM | > 20 µM | 1 to 20 µM | O=S(=O)(c1ccc(Sc2cccc3cccnc23)c2nonc12)N1CCC(O)(c2ccc(Cl)cc2)CC1 |  |  |  |  | 
 |  | 1 to 20 µM |  |  | COc1ccccc1Sc1ccc(S(=O)(=O)N2CCN(c3ccccc3)CC2)c2nonc12 |  |  |  |  | 

Read-outs that look alike come from different tables or passages of the source. The match of structure and compound is tentative.
